# Tests used:
# Format in all cases: cell-based
# [1] = test system: MCF-10A human normal breast cell lines; experiment: MTT proliferation (cytotoxicity) assay on MCF-10A normal cells
# Excerpt: (§1) MCF-7 and MDA-MB-231 human breast cancer cell lines, as well as MCF-10A human normal breast cell lines, were used in this study. These cells were acquired from the American Type Culture Collection (Manassas, VA, USA). MCF-7 and MDAMB-231 cells were regularly cultured in Dulbecco’s Modified Eagle’s Medium (DMEM; Gibco, Waltham, MA, USA), and supplemented with 10% (v/v) foetal bovine serum (FBS; Gibco, Waltham, MA, USA) and 100 U/mL penicillin-streptomycin (PenStrep; Gibco, Waltham, MA, USA). MCF-10A cells were routinely cultured in DMEM/F12 (Gibco, Waltham, MA, USA) medium supplemented with 5% horse serum (Sigma-Aldrich, Burlington, MA, USA), 10 μg/mL of insulin (Sigma-Aldrich, Burlington, MA, USA), 20 ng/mL of human epidermal growth factor (hEGF; ThermoFisher, Waltham, MA, USA), 0.5 μg/mL of hydrocortisone (Sigma-Aldrich, Burlington, MA, USA) and 1 U/mL PenStrep. All cell lines were maintained in a humidified atmosphere with 5% CO2 at 37 °C.
# (§2) The effects of the N-(2-cinnamylphenyl)amide products (i.e., isolated pure isomers) on MCF-7, MDA-MB-231 and MCF-10A were determined using a 3-(4,5-dimethylthiazol-2-yl)-2,5-diphenyltetrazolium bromide (MTT) proliferation assay. The cell lines were seeded in 96-well plates at a density of 1 × 10^4 cells/well and allowed to grow overnight for cell attachment. […] The optical density (O.D.) of each well was measured using a microplate reader (PowerWave-XS; Bio-Tek Instruments, Winooski, Vermont, USA) at 570 nm. […]
# (§3) The selectivity index (SI) was used to indicate the cytotoxic selectivity of the samples against cancer cells and normal cells. It was calculated from the IC50 of the samples in normal cells versus cancer cells. […] All data were analysed and presented as means standard deviation (±SD). Comparisons between each concentration of 18 samples were evaluated using Student’s t-test, where p < 0.05, p < 0.01 or p < 0.001 were considered as statistically significant relative to the untreated control cells.
# [2] = test system: MDA-MB-231 human breast cancer cell lines; experiment: MTT proliferation (cytotoxicity) assay on MDA-MB-231 cells; settings: 48 h incubation
# Excerpt: MCF-7 and MDA-MB-231 human breast cancer cell lines, as well as MCF-10A human normal breast cell lines, were used in this study. These cells were acquired from the American Type Culture Collection (Manassas, VA, USA). MCF-7 and MDAMB-231 cells were regularly cultured in Dulbecco’s Modified Eagle’s Medium (DMEM; Gibco, Waltham, MA, USA), and supplemented with 10% (v/v) foetal bovine serum (FBS; Gibco, Waltham, MA, USA) and 100 U/mL penicillin-streptomycin (PenStrep; Gibco, Waltham, MA, USA). […]
# as §2, with “assay.” for “assay. The cell lines were seeded in 96-well plates at a density of 1 × 10^4 cells/well and allowed to grow overnight for cell attachment.”
# as §3
# [3] = test system: MCF-7 human breast cancer cell lines; experiment: MTT proliferation (cytotoxicity) assay on MCF-7 cells
# Excerpt: as §1, §2, §3
smiles,measurement,setting,value
"CC/C(=C(\c1ccccc1)c1ccc(OCCN(C)C)cc1)c1ccccc1 [Tamoxifen, reference compound]",IC50,[1]; 24 h incubation,3.24 ± 0.01 µM
same,IC50,[1]; 48 h incubation,3.33 ± 0.02 µM
same,IC50,[1]; 72 h incubation,4.07 ± 0.09 µM
same,IC50,[2],15.9 ± 0.73 µM
same,IC50,"[3]; MCF7, 24 h incubation",16.2 ± 0.37 µM
same,IC50,"[3]; MCF7, 48 h incubation",15.4 ± 1.42 µM
same,IC50,"[3]; MCF7, 72 h incubation",15.78 ± 0.1 µM

# Source: publication PMC9457622, “Synthesis of Bio-Inspired 1,3-Diarylpropene Derivatives via Heck Cross-Coupling and Cytotoxic Evaluation on Breast Cancer Cells” (Molecules, 2022)
